# According to the supplement of paper PMC6143611:
# ± gives the uncertainty stated by the source. The list shows a part of the results. Baselines shift from plate to plate; read single values as rough.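 A heat-shock-induced fluorescent stripe was set in larval rod outer segments at 6 dpf. Shedding distance ran from stripe to outer segment tip, measured by confocal stacks in about three fish per compound. Controls: 0.2% DMSO vehicle. Flagged compounds showed ≥20% change from same-week control, p < 0.001 (Dunnett test on mixed-effects models).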
# Key:
# [1] = test system: Danio rerio larva rod photoreceptor outer segment; test: rod outer segment growth distance Dg, difference from same-week DMSO control mean; higher = more outer segment growth; details: 20 µM; treatment time: 4 days (6-10 dpf)
# [2] = test system: Danio rerio larva rod photoreceptor outer segment; test: rod outer segment shedding distance Ds, difference from same-week DMSO control mean; higher = less outer segment shedding; details: 20 µM; treatment time: 4 days (6-10 dpf)
Structure (SMILES),rod outer segment growth distance Dg [1],rod outer segment shedding distance Ds [2]
O=c1ccc2cc(O[C@@H]3O[C@H](CO)[C@@H](O)[C@H](O)[C@H]3O)c(O)cc2o1 [Esculin],0.41 ± 0.25 um,-0.46 ± 0.37 um
Cc1cccc(C)c1NC(=O)CN1CCCC1=O [Nefiracetam],1.09 ± 0.29 um,0.74 ± 0.28 um
CC[C@@H]1[C@@H](C)O[C@@](O)([C@@H](C)[C@H](O)[C@H](C)[C@H]2OC(=O)/C=C/C=C/[C@H](C)[C@@H]([C@@H](C)[C@@H](O)[C@H](C)[C@@]3(O)C[C@@H](O[C@H]4C[C@H](O)[C@H](O)[C@H](C)O4)[C@H](CC)[C@@H](C)O3)OC(=O)/C=C/C=C/[C@@H]2C)C[C@H]1O[C@H]1C[C@H](O)[C@H](O)[C@H](C)O1 [Elaiophylin],-1.18 ± 0.18 um,-0.38 ± 0.17 um
CN1[C@@H]2CC[C@H]1C[C@@H](OC(=O)C(CO)c1ccccc1)C2 (some centres undefined) [Atropine],0.71 ± 0.26 um,-0.16 ± 0.35 um
CC1C=CC=CCCC=CC=CC=CC=CC(OC2OC(C)C(O)C(N)C2O)CC2OC(O)(CC(O)C(O)CCC(O)CC(O)CC(O)CC(=O)OC(C)C(C)C1O)CC(O)C2C(=O)O (centres undefined) [Nystatin (Fungicidin)],-0.53 ± 0.27 um,-1.41 ± 0.32 um
O=c1cccc2n1C[C@@H]1CNC[C@H]2C1 [Cytisine],-0.54 ± 0.34 um,-0.43 ± 0.31 um
O=C(O[C@H]1C[C@H]2CC[C@@H](C1)[N+]21CCCC1)C(O)(c1ccccc1)c1ccccc1 [Trospium chloride],-0.6 ± 0.26 um,-0.35 ± 0.15 um
